These are yes or no findings as the source states them, for the method shown. In cells and extracts the contact can be indirect. Some binding calls cover weakened binding; strength is not graded here. Where a sequence is shown, tags or fusion partners need not be part of it.
Target: T1, FLAG epitope tagged PPM-2 (FLAG::PPM-2) (C. elegans) (UniProt P49596)
T1 sequence: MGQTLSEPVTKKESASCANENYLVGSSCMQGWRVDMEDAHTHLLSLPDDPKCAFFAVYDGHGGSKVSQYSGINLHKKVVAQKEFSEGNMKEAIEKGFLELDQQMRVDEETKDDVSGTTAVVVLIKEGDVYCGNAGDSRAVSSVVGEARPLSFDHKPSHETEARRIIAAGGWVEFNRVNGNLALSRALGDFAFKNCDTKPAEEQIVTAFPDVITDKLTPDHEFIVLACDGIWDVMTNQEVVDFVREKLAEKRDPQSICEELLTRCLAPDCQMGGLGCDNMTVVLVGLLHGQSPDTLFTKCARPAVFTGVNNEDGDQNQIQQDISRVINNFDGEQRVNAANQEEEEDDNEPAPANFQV
Experiment: co-IP; FLAG::PPM-2 immunoprecipitated with anti-FLAG antibody (M2) and protein G agarose from 3 mg of transgenic whole worm lysate (50 mM Tris pH 7.5, 0.1% NP-40, 150 mM NaCl, 10% glycerol); RPM-1::GFP detected by anti-GFP immunoblot

Amino acid sequences for entries named in this document (tags omitted).
UniProt Q17551: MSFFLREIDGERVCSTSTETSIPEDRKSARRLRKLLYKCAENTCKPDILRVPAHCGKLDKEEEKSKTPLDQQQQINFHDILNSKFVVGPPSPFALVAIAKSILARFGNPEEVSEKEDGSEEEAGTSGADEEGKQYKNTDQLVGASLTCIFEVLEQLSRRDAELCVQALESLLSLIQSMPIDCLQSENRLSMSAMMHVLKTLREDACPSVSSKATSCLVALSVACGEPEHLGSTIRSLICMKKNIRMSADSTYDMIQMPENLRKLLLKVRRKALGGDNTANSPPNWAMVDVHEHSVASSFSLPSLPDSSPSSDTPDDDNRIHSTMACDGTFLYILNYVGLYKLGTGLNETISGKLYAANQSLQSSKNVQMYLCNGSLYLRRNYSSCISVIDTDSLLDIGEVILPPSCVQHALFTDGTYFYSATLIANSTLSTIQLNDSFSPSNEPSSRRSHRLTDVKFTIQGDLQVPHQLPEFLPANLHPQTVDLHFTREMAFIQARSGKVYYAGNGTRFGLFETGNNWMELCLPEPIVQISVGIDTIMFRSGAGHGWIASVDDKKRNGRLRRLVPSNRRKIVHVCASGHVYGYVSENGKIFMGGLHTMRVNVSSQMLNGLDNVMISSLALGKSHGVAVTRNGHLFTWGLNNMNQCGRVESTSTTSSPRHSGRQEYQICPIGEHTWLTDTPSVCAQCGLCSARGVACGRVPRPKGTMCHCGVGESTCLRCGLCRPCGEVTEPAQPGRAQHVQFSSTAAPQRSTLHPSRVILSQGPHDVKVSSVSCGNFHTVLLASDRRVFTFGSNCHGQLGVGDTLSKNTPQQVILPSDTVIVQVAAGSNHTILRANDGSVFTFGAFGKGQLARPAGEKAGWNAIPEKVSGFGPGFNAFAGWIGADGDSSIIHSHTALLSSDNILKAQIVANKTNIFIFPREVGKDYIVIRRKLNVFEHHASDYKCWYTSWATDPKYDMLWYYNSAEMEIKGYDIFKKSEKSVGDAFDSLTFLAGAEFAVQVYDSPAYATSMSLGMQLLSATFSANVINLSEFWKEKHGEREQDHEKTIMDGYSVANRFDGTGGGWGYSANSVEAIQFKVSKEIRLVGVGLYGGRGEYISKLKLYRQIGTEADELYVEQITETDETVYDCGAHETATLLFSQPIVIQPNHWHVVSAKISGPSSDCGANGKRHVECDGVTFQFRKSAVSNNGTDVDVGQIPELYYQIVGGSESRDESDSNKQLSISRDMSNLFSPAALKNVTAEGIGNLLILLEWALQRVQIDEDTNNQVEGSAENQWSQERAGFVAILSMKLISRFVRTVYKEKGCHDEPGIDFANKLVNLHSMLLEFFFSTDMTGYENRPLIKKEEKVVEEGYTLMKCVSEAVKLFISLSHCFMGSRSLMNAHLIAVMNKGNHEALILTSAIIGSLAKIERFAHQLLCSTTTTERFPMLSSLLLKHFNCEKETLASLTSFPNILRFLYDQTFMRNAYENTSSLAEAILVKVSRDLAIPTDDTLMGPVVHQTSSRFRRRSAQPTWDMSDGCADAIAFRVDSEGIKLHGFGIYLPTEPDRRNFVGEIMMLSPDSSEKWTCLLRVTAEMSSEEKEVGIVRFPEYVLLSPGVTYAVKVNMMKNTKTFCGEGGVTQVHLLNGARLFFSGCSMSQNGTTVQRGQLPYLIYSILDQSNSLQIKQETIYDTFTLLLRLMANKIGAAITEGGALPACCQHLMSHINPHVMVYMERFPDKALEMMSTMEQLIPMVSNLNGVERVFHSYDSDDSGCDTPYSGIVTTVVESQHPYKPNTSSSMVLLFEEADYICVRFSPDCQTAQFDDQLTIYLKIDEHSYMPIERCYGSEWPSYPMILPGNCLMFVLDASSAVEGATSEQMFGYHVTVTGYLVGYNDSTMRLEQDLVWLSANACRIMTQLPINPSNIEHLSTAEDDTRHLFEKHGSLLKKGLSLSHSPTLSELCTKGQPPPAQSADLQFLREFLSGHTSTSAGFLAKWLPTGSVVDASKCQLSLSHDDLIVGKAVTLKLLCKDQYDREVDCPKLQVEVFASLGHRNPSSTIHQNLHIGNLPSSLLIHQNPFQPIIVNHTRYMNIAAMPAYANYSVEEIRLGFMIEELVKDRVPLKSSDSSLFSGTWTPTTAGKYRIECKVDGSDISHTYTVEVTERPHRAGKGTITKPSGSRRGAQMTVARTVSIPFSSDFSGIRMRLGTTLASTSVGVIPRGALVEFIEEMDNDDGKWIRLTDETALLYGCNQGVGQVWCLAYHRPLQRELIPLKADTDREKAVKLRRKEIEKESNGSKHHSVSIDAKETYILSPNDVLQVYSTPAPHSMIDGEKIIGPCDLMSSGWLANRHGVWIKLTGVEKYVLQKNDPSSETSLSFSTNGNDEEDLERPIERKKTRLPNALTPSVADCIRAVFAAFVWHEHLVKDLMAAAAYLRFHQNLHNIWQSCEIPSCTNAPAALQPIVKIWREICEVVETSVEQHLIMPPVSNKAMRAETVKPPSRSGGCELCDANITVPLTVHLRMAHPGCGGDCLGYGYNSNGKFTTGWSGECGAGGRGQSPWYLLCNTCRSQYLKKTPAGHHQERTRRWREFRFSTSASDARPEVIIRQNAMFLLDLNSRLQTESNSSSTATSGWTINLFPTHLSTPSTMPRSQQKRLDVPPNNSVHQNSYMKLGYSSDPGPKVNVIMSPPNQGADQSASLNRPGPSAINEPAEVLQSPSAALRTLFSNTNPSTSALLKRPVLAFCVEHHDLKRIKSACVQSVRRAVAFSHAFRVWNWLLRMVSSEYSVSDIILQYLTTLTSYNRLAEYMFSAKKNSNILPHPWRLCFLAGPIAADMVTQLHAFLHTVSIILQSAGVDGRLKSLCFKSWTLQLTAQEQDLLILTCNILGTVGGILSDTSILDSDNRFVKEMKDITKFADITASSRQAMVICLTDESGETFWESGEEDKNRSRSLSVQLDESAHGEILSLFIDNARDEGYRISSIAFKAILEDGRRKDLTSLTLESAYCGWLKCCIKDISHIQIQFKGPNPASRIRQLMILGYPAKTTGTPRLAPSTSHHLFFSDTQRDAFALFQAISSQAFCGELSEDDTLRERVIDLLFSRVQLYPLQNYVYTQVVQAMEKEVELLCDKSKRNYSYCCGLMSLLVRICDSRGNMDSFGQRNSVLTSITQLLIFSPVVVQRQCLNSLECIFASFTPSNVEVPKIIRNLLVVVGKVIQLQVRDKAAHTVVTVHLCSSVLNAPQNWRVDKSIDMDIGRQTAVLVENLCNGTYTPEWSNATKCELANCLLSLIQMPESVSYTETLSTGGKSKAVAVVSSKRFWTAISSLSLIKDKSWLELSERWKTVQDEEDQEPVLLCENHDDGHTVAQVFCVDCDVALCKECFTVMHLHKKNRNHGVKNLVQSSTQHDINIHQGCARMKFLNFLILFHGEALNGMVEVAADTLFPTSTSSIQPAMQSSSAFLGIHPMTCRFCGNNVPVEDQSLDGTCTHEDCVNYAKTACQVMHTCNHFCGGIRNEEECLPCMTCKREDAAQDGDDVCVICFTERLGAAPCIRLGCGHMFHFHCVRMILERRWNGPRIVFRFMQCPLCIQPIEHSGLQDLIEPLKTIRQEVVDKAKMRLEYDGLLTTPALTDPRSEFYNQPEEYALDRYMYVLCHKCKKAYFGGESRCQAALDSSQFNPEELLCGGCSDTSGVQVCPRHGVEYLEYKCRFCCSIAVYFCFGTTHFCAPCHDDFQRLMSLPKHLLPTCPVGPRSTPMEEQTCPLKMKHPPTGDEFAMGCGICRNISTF

binding: binds
Substance: RPM-1::GFP (fusion protein of Regulator of Presynaptic Morphology 1 and GFP) (from UniProt Q17551 1-3766)

Reference: PMC4014440
